Reference: patent publication US8846681B2, “Pyrimidyl cyclopentanes as AKT protein kinase inhibitors” (Array BioPharma, Inc., priority 2006, dated 2014)
Where a name gives a salt, the structure may show the parent alone. Some entries share one result that the patent states for a list of compounds.

Protein sequences, listed by entry. Tags and fused reporters are not part of them. Lines headed by an entry give the natural chain unless they say otherwise; changes in a name come on top.
UniProt P31749: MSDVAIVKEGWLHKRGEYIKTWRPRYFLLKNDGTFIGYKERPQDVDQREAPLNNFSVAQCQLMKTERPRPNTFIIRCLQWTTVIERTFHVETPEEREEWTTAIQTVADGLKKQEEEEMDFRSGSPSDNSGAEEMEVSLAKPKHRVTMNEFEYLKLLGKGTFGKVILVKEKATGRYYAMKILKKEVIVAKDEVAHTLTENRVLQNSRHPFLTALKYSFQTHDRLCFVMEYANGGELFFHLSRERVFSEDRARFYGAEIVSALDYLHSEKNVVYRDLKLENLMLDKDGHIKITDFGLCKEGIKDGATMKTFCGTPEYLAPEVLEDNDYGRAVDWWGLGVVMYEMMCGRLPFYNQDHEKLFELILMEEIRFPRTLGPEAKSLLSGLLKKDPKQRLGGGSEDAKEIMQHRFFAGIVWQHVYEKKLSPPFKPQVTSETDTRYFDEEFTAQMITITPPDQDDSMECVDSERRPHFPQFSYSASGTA

molecular target: full-length human recombinant active AKT-1 (Homo sapiens, UniProt P31749); test: AKT-1 Kinase Assay (IMAP fluorescence polarization); format: biochemical; settings: phosphorylation of fluorescently-labeled peptide (Crosstide), IMAP kit

Compound | IC50 [µM]
C[C@@H]1C[C@H](F)c2ncnc(N3CCN(C(=O)[C@H](CNC4CCCCC4)c4ccc(Cl)cc4)CC3)c21 [Example 101, (S)-2-(4-chlorophenyl)-3-(cyclohexylamino)-1-(4-((5R,7S)-7-fluoro-5-methyl-6,7-dihydro-5H-cyclopenta[d]pyrimidin-4-yl)piperazin-1-yl)propan-1-one] | < 10
C[C@@H]1C[C@@H](F)c2ncnc(N3CCN(C(=O)[C@H](CN(CC4CC4)CC4CC4)c4ccc(Br)cc4)CC3)c21 [Example 155, (S)-3-(bis(cyclopropylmethyl)amino)-2-(4-bromophenyl)-1-(4-((5R,7R)-7-fluoro-5-methyl-6,7-dihydro-5H-cyclopenta[d]pyrimidin-4-yl)piperazin-1-yl)propan-1-one] | < 10
C[C@@H]1C[C@H](F)c2ncnc(N3CCN(C(=O)[C@H](CNC4CCNCC4)c4ccc(Cl)cc4)CC3)c21 [Example 91, (S)-2-(4-chlorophenyl)-1-(4-((5R,7S)-7-fluoro-5-methyl-6,7-dihydro-5H-cyclopenta[d]pyrimidin-4-yl)piperazin-1-yl)-3-(piperidin-4-ylamino)propan-1-one] | < 10
C[C@@H]1CCc2ncnc(N3CCN(C(=O)C(CN4CC(F)(F)C4)c4ccc(Cl)cc4)CC3)c21 (stereo partly drawn) [Example 48, 2-(4-chlorophenyl)-3-(3,3-difluoroazetidin-1-yl)-1-(4-((R)-5-methyl-6,7-dihydro-5H-cyclopenta[d]pyrimidin-4-yl)piperazin-1-yl)propan-1-one] | < 10
C[C@@H]1CCc2ncnc(N3CCN(C(=O)C(CN4CC[C@H](O)C4)c4ccc(Cl)cc4)CC3)c21 (stereo partly drawn) [Example 23, (R,S) 2-(4-chlorophenyl)-3-((S)-3-hydroxypyrrolidin-1-yl)-1-(4-((R)-5-methyl-6,7-dihydro-5H-cyclopenta[d]pyrimidin-4-yl)piperazin-1-yl)propan-1-one dihydrochloride] | < 10
C[C@@H]1CCc2ncnc(N3CCN(C(=O)[C@H](N)Cc4ccccn4)C[C@@H]3C)c21 [Example 162, (R)-2-amino-1-((S)-3-methyl-4-((R)-5-methyl-6,7-dihydro-5H-cyclopenta[d]pyrimidin-4-yl)piperazin-1-yl)-3-(pyridin-2-yl)propan-1-one] | < 10
C[C@@H]1CCc2ncnc(N3CCN(C(=O)C(CNCC(C)(C)C)c4ccc(Cl)cc4)CC3)c21 (stereo partly drawn) [Example 32, (R,S)-2-(4-chlorophenyl)-1-(4-((R)-5-methyl-6,7-dihydro-5H-cyclopenta[d]pyrimidin-4-yl)piperazin-1-yl)-3-(neopentylamino)propan-1-one dihydrochloride] | < 10
C[C@@H]1C[C@@H](F)c2ncnc(N3CCN(C(=O)[C@H](CN)c4ccc(Cl)c(Cl)c4)CC3)c21 [Example 121, (S)-3-amino-2-(3,4-dichlorophenyl)-1-(4-((5R,7R)-7-fluoro-5-methyl-6,7-dihydro-5H-cyclopenta[d]pyrimidin-4-yl)piperazin-1-yl)propan-1-one] | < 10
C[C@@H]1CCc2ncnc(N3CCN(C(=O)C(CN(C)C)c4ccc(Cl)cc4)CC3)c21 (stereo partly drawn) [Example 53, 2-(4-chlorophenyl)-3-(dimethylamino)-1-(4-((R)-5-methyl-6,7-dihydro-5H-cyclopenta[d]pyrimidin-4-yl)piperazin-1-yl)propan-1-one] | < 10
CC1CCc2ncnc(N3CCN(C(=O)C4CNCC4c4ccc(Cl)c(Cl)c4)CC3)c21 (mixture of isomers) [Example 14, ((3S,4R)-4-(3,4-dichlorophenyl)pyrrolidin-3-yl)(4-((R)-5-methyl-6,7-dihydro-5H-cyclopenta[d]pyrimidin-4-yl)piperazin-1-yl)methanone dihydrochloride and ((3R,4S)-4-(3,4-dichlorophenyl)pyrrolidin-3-yl)(4-((R)-5-methyl-6,7-dihydro-5H-cyclopenta[d]pyrimidin-4-yl)piperazin-1-yl)methanone dihydrochloride] | < 10
C[C@@H]1C[C@@H](F)c2ncnc(N3CCN(C(=O)[C@H](CNC4CCCCC4)c4ccc(Cl)cc4)CC3)c21 [Example 97, (S)-2-(4-chlorophenyl)-3-(cyclohexylamino)-1-(4-((5R,7R)-7-fluoro-5-methyl-6,7-dihydro-5H-cyclopenta[d]pyrimidin-4-yl)piperazin-1-yl)propan-1-one] | < 10
C[C@@H]1CCc2ncnc(N3CCN(C(=O)[C@H](N)Cc4ccccn4)CC3)c21 [Example 161, (R)-2-amino-1-(4-((R)-5-methyl-6,7-dihydro-5H-cyclopenta[d]pyrimidin-4-yl)piperazin-1-yl)-3-(pyridin-2-yl)propan-1-one] | < 10
C[C@@H]1C[C@H](F)c2ncnc(N3CCN(C(=O)[C@H](CNC4CCOCC4)c4ccc(Br)cc4)CC3)c21 [Example 129, (S)-2-(4-bromophenyl)-1-(4-((5R,7S)-7-fluoro-5-methyl-6,7-dihydro-5H-cyclopenta[d]pyrimidin-4-yl)piperazin-1-yl)-3-(tetrahydro-2H-pyran-4-ylamino)propan-1-one] | < 10
C[C@@H]1C[C@@H](F)c2ncnc(N3CCN(C(=O)[C@H](CNCC4CC4)c4ccc(Cl)cc4)CC3)c21 [Example 40, (S)-2-(4-chlorophenyl)-3-(cyclopropylmethylamino)-1-(4-((5R,7R)-7-fluoro-5-methyl-6,7-dihydro-5H-cyclopenta[d]pyrimidin-4-yl)piperazin-1-yl)propan-1-one] | < 10
COc1ccc(C(CNC(C)C)C(=O)N2CCN(c3ncnc4c3[C@H](C)CC4)CC2)cc1 (stereo partly drawn) [Example 26, (R,S)-3-(isopropylamino)-2-(4-methoxyphenyl)-1-(4-((R)-5-methyl-6,7-dihydro-5H-cyclopenta[d]pyrimidin-4-yl)piperazin-1-yl)propan-1-one dihydrochloride] | < 10
CC(C)NC[C@@H](C(=O)N1CCN(c2ncnc3c2[C@H](C)C[C@H]3F)CC1)c1ccc(Cl)c(F)c1 [Example 134, (S)-2-(4-chloro-3-fluorophenyl)-1-(4-((5R,7R)-7-fluoro-5-methyl-6,7-dihydro-5H-cyclopenta[d]pyrimidin-4-yl)piperazin-1-yl)-3-(isopropylamino)propan-1-one] | < 10
CC(C)NC[C@@H](C(=O)N1CCN(c2ncnc3c2[C@H](C)C[C@@H]3F)CC1)c1ccc(Cl)c(F)c1 [Example 151, (S)-2-(4-chloro-3-fluorophenyl)-1-(4-((5R,7S)-7-fluoro-5-methyl-6,7-dihydro-5H-cyclopenta[d]pyrimidin-4-yl)piperazin-1-yl)-3-(isopropylamino)propan-1-one] | < 10
CC(C)NC[C@@H](C(=O)N1CCN(c2ncnc3c2[C@H](C)C[C@@H]3F)CC1)c1ccc(Br)s1 [Example 165, (S)-2-(5-bromothiophen-2-yl)-1-(4-((5R,7S)-7-fluoro-5-methyl-6,7-dihydro-5H-cyclopenta[d]pyrimidin-4-yl)piperazin-1-yl)-3-(isopropylamino)propan-1-one] | < 10
C[C@@H]1C[C@@H](F)c2ncnc(N3CCN(C(=O)[C@@H](CN4CCC(O)CC4)c4ccc(Cl)cc4)CC3)c21 [Example 114, (R)-2-(4-chlorophenyl)-1-(4-((5R,7R)-7-fluoro-5-methyl-6,7-dihydro-5H-cyclopenta[d]pyrimidin-4-yl)piperazin-1-yl)-3-(4-hydroxypiperidin-1-yl)propan-1-one] | < 10
C[C@@H]1C[C@H](F)c2ncnc(N3CCN(C(=O)[C@H](CNC4CCOCC4)c4ccc(Br)s4)CC3)c21 [Example 164, (S)-2-(5-bromothiophen-2-yl)-1-(4-((5R,7S)-7-fluoro-5-methyl-6,7-dihydro-5H-cyclopenta[d]pyrimidin-4-yl)piperazin-1-yl)-3-(tetrahydro-2H-pyran-4-ylamino)propan-1-one] | < 10
C[C@@H]1C[C@H](F)c2ncnc(N3CCN(C(=O)[C@H](CNCC4CC4)c4ccc(Cl)c(F)c4)CC3)c21 [Example 152, (S)-2-(4-chloro-3-fluorophenyl)-3-(cyclopropylmethylamino)-1-(4-((5R,7S)-7-fluoro-5-methyl-6,7-dihydro-5H-cyclopenta[d]pyrimidin-4-yl)piperazin-1-yl)propan-1-one] | < 10
CC(=O)N1CCC(NC[C@@H](C(=O)N2CCN(c3ncnc4c3[C@H](C)C[C@@H]4F)CC2)c2ccc(Cl)cc2)CC1 [Example 90, (S)-3-(1-acetylpiperidin-4-ylamino)-2-(4-chlorophenyl)-1-(4-((5R,7S)-7-fluoro-5-methyl-6,7-dihydro-5H-cyclopenta[d]pyrimidin-4-yl)piperazin-1-yl)propan-1-one] | < 10
C[C@@H]1CCc2ncnc(N3CCN(C(=O)[C@H](N)Cc4ccc(I)cc4)C[C@@H]3C)c21 [Example 65, (R)-2-amino-3-(4-iodophenyl)-1-((S)-3-methyl-4-((R)-5-methyl-6,7-dihydro-5H-cyclopenta[d]pyrimidin-4-yl)piperazin-1-yl)propan-1-one] | < 10
Cc1ccc(C[C@@H](N)C(=O)N2CCN(c3ncnc4c3[C@H](C)CC4)CC2)cc1 [Example 82, (R)-2-amino-1-(4-((R)-5-methyl-6,7-dihydro-5H-cyclopenta[d]pyrimidin-4-yl)piperazin-1-yl)-3-p-tolylpropan-1-one] | < 10
CC(=O)N1CCN(C[C@@H](C(=O)N2CCN(c3ncnc4c3[C@H](C)C[C@H]4F)CC2)c2ccc(Cl)cc2)CC1 [Example 110, (S)-3-(4-acetylpiperazin-1-yl)-2-(4-chlorophenyl)-1-(4-((5R,7R)-7-fluoro-5-methyl-6,7-dihydro-5H-cyclopenta[d]pyrimidin-4-yl)piperazin-1-yl)propan-1-one] | < 10
C[C@@H]1C[C@H](F)c2ncnc(N3CCN(C(=O)[C@H](CN)c4ccc(Cl)cc4)CC3)c21 [Example 102, (S)-3-amino-2-(4-chlorophenyl)-1-(4-((5R,7S)-7-fluoro-5-methyl-6,7-dihydro-5H-cyclopenta[d]pyrimidin-4-yl)piperazin-1-yl)propan-1-one] | < 10
CC(C)NC[C@@H](C(=O)N1CCN(c2ncnc3c2[C@H](C)C[C@@H]3F)CC1)c1ccc(Br)c(F)c1 [Example 145, (S)-2-(4-bromo-3-fluorophenyl)-1-(4-((5R,7S)-7-fluoro-5-methyl-6,7-dihydro-5H-cyclopenta[d]pyrimidin-4-yl)piperazin-1-yl)-3-(isopropylamino)propan-1-one] | < 10
